This passage reports binding results from article PMC6949151.

Sequences of proteins named here, by UniProt entry; tags and fusion partners are left off.
UniProt P05412: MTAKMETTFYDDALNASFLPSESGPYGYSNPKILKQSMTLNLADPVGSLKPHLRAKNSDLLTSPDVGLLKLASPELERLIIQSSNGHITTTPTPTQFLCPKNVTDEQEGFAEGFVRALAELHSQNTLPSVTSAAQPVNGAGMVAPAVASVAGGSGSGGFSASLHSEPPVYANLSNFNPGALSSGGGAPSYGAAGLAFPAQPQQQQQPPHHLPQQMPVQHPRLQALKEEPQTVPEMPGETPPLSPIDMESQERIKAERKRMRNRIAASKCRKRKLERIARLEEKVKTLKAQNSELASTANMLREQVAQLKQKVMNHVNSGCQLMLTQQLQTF

These are yes or no findings as the source states them, for the method shown. In cells and extracts the contact can be indirect. Some entries that bind do so weakly or less than the wild type.

Test [1] has as its target Flag-p300 (histone acetyltransferase p300) (UniProt Q09472). In words: co-IP; RPTEC/TERT1 OAT3 cells co-transfected with a 6×Myc and a 2×Flag plasmid, 48 h; lysed in 1× RIPA buffer with protease inhibitor; immunoprecipitated with anti-Flag agarose and anti-Myc agarose; western blotting.
Test [2] deals with Flag-c-FOS (UniProt P01100). The test is described as above.
Test [3] addresses Flag-c-Jun (UniProt P05412). Described as above.
Test [4] concerns the target Flag-c-Jun (UniProt P05412). Briefly: co-IP; the anti-Flag immunoprecipitates of Flag-c-FOS and Flag-c-Jun used for mass spectrometry, western blotted for endogenous CtBP2 and p300.
Test [5] concerns the target Flag-c-FOS (UniProt P01100). The test is described as above.

With “Myc-CtBP2 (C-terminal binding protein 2) (from UniProt P56545 1-445)”, the binding result in test [1] is on record as “binds”; in test [2], “no binding”.

With “Myc-p300 (histone acetyltransferase p300) (from UniProt Q09472 1-2414)”, the binding entry in test [3] and in test [2] was “binds” throughout.

Turning to “histone acetyltransferase p300 (from UniProt Q09472 1-2414)”, the binding result in test [4] and in test [5] was “binds” throughout.
